Results are given in words; binding and its absence hold for the method and conditions named. Some binding calls cover weakened binding; strength is not graded here.
Biological target: T1, human FGF-8 (human) (UniProt P55075)
T1 sequence (looked up): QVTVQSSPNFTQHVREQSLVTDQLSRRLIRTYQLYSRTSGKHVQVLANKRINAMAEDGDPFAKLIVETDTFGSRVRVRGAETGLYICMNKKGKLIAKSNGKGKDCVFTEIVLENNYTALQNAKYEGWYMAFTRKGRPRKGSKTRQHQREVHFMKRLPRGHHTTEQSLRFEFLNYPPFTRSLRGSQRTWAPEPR
Test: tissue immunostaining of paraffin sections of human rheumatoid arthritis synovial membrane

binding: binds
B1: anti-FGF-8 neutralizing mouse antibody KM1334 (antibody, mouse IgG1, V domains shown)
VH: QVQLQQSGAEVARPGASVKLSCKASGYTFTDYYLNWVKQRSGQGLEWIGEIDPGSDSIYYNENLEGRATLTADKSSSTAYMQLNSLTSEDSAVYFCARYGYSRYDVRFVYWGQGTLVTVST
VL: DVLMTQTPLSLPVSLGDQASISCRSSQSLVHSNGRTYLEWYLQKPGQSPKVLIYKVSNRISGVPDRFSGSGSGTDFTLKISRVEAEDLGVYFCFQGSHVPYTFGGGTKLEIK

— patent publication US20050175608A1 (Kyowa Kirin, published 2005)
